Test results as given in patent US10273231B2, “Azoline compounds substituted by a condensed ring system” (BASF SE, priority 2014, dated 2019).
Some results were stated once for a whole list of compounds, not compound by compound.

What was measured:
Type in all cases: in vivo
[1] = tested on: Green Peach Aphid (Myzus persicae); test: B.2 Green peach aphid systemic test, artificial diet under membrane in microtiter plates; settings: at 2500 ppm; adult aphids; assessed after 3 days
[2] = tested on: Southern Armyworm (Spodoptera eridania); test: B.10 Southern armyworm test on sprayed lima bean plants; settings: at 10 ppm; larvae; assessed 4 days after treatment
Method: B.10 Southern Armyworm (Spodoptera eridania)
The active compounds were formulated in cyclohexanone as a 10,000 ppm solution supplied in tubes. The tubes were inserted into an automated electrostatic sprayer equipped with an atomizing nozzle and they served as stock solutions for which lower dilutions were made in 50% acetone:50% water (v/v). A nonionic surfactant (Kinetic®) was included in the solution at a volume of 0.01% (v/v).
Lima bean plants (variety Sieva) were grown 2 plants to a pot and selected for treatment at the 1st true leaf stage. Test solutions were sprayed onto the foliage by an automated electrostatic plant sprayer equipped with an atomizing spray nozzle. The plants were dried in the sprayer fume hood and then removed from the sprayer. Each pot was placed into perforated plastic bags with a zip closure. About 10 to 11 armyworm larvae were placed into the bag and the bags zipped closed. Test plants were maintained in a growth room at about 250C and about 20-40% relative humidity for 4 days, avoiding direct exposure to fluorescent light (24 hour photoperiod) to prevent trapping of heat inside the bags. Mortality and reduced feeding were assessed 4 days after treatment, compared to untreated control plants.

[3] = tested on: Vetch Aphid (Megoura viciae); test: B.3 Vetch aphid test on broad bean leaf disks; settings: at 2500 ppm; adult aphids; assessed after 5 days
[4] = tested on: Tobacco Budworm (Heliothis virescens); test: B.4 Tobacco budworm test, insect diet with eggs in microtiter plates; settings: at 2500 ppm; egg and larval mortality after 5 days
[5] = tested on: Neotropical Brown Stink Bug (Euschistus heros); test: B.12 Neotropical brown stink bug test on soybean pods in plastic cups; settings: at 100 ppm; adult stage; recorded after 5 days
Method: B.12 Neotropical Brown Stink Bug (Euschistus heros)
(§1) The active compound was dissolved at the desired concentration in a mixture of 1:1 (vol:vol) distilled water:acetone. Surfactant (Kinetic HV) was added at a rate of 0.01% (vol/vol).The test solution was prepared at the day of use.
Soybean pods were placed in microwavable plastic cups and inoculated with ten adult stage E. heros. Using a hand atomizer, approximately 1 ml solution is sprayed into each cup, insects and food present. A water source was provided (cotton wick with water). Each treatment was replicated 2-fold. Assay arenas were kept at about 25° C. Percent mortality was recorded after 5 days.

[6] = tested on: Diamond Back Moth (Plutella xylostella); test: B.1 Diamond back moth leaf-dip test on cabbage leaves; settings: at 300 ppm; 3rd instar larvae; recorded 72 hours after treatment
[7] = tested on: Green Soldier Stink Bug (Nezara viridula); test: B.11 Green soldier stink bug test on soybean pods in Petri dishes; settings: at 300 ppm; late 3rd instar; recorded after 5 days
[8] = tested on: Orchid Thrips (Dichromothrips Corbetti); test: B.7 Orchid thrips floral-immersion test; settings: at 300 ppm; adult thrips; recorded 72 hours after treatment
[9] = tested on: Boll Weevil (Anthonomus grandis); test: B.5 Boll weevil test, insect diet with eggs in microtiter plates; settings: at 2500 ppm; egg and larval mortality after 5 days
How it was run: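 Compounds in 75% water/25% DMSO sprayed at several concentrations (5 μl, two replicates) onto insect diet in 96-well microtiter plates holding 5-10 A. grandis eggs. After 5 days at about 25±1° C and 75±5% relative humidity, egg and larval mortality scored visually.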

[10] = tested on: Brown Marmorated Stink Bug (Halyomorpha halys); test: B.13 Brown marmorated stink bug test on peanuts and soybean seeds in plastic cups; settings: at 100 ppm; adult stage; recorded after 5 days
Method: B.13 Brown Marmorated Stink Bug (Halyomorpha halys)
as §1
Row peanuts and soybean seeds were placed into microwavable plastic cups and inoculated with five adult stage H. halys. Using a hand atomizer, approximately 1 ml solution is sprayed into each cup, insects and food present. A water source was provided (cotton wick with water). Each treatment is replicated 4-fold. Assay arenas are kept at about 25° C. Percent mortality was recorded after 5 days.

[11] = tested on: Rice Green Leafhopper (Nephotettix virescens); test: B.8 Rice green leafhopper test on sprayed rice seedlings; settings: at 300 ppm; adults; recorded after 72 hours
[12] = tested on: Mediterranean Fruitfly (Ceratitis capitata); test: B.6 Mediterranean fruitfly test, insect diet with eggs in microtiter plates; settings: at 2500 ppm; egg and larval mortality after 5 days
[13] = tested on: Red Spider Mite (Tetranychus kanzawai); test: B.9 Red spider mite test on sprayed cowpea beans; settings: at 300 ppm; assessed 72 hours after treatment
Method: B.9 Red Spider Mite (Tetranychus kanzawai)
The active compound was dissolved at the desired concentration in a mixture of 1:1 (vol:vol) distilled water:acetone. Add surfactant (Kinetic HV) was added at a rate of 0.01% (vol/vol).The test solution was prepared at the day of use.
Potted cowpea beans of 4-5 days of age were cleaned with tap water and sprayed with 1-2 ml of the test solution using air driven hand atomizer. The treated plants were allowed to air dry and afterwards inoculated with 30 or more mites by clipping a cassava leaf section from rearing population. Treated plants were placed inside a holding room at about 25-27° C. and about 50-60% relative humidity. Percent mortality was assessed 72 hours after treatment.

Measured: mortality in comparison with untreated controls

O=C(NCc1ncccn1)c1ccc(C2=NOC(c3cc(Cl)c(F)c(Cl)c3)(C(F)(F)F)C2)c2c1SCC2 (centres unmarked) [Compound I-6]
at least 75%: [1] | [2] | [3] | [4] | [5] | [6] | [7] | [8] | [9] | [10] | [11] | [12]

O=C(CNC(=O)c1ccc(C2=NOC(c3cc(Cl)c(F)c(Cl)c3)(C(F)(F)F)C2)c2c1SCC2)NCC(F)(F)F (centres unmarked) [Compound I-8]
at least 75%: [1] | [3] | [4] | [6] | [7] | [8] | [9] | [10] | [11] | [12]

O=C(CC(F)(F)F)NCc1ccc(C2=NOC(c3cc(Cl)c(F)c(Cl)c3)(C(F)(F)F)C2)c2c1OCC2 (centres unmarked) [Compound I-11]
at least 75%: [1] | [2] | [3] | [4] | [5] | [6] | [7] | [8] | [9] | [11] | [12] | [13]

O=C(NCc1ncccn1)c1ccc(C2=NOC(c3cc(Cl)c(F)c(Cl)c3)(C(F)(F)F)C2)c2c1S(=O)(=O)CC2 (centres unmarked) [Compound I-21]
at least 75%: [1] | [2] | [3] | [4] | [6] | [7] | [8] | [9] | [10] | [11] | [12] | [13]

CCN1OC[C@@H](NC(=O)c2ccc(C3=NOC(c4cc(Cl)c(F)c(Cl)c4)(C(F)(F)F)C3)c3c2OCCC3)C1=O (some centres unmarked) [Compound I-34]
at least 75%: [1] | [2] | [3] | [4] | [6] | [7] | [8] | [9] | [10] | [11] | [12] | [13]

O=C(NC1CSC1)c1ccc(C2=NOC(c3cc(Cl)c(F)c(Cl)c3)(C(F)(F)F)C2)c2c1COC2 (centres unmarked) [Compound I-37]
at least 75%: [1] | [2] | [3] | [4] | [6] | [8] | [9] | [10] | [11] | [12]
